From the supplement of paper PMC8728848
This is one part of the list.

Tests used:
Test in all cases: glycan array binding signal (z-score within array); higher = stronger binding
Conditions in all cases: glycan notation: IUPAC condensed, linker removed
Fuc(a1-2)Gal = biological target: Fuc(a1-2)Gal
Procedure, shortened: (§1)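 Glycan array data came from 3228 arrays in the Consortium for Functional Glycomics database, and only arrays with an available protein sequence were kept. Glycan names were put into IUPAC-condensed notation, and columns mapping to the same glycan were averaged. The binding signal is a within-array Z-score, averaged across arrays of one protein sequence run at different concentrations or buffers and across linkers. A negative Z-score can be read as non-binding.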

Fuc(a1-2)Gal(b1-3)GalNAc = biological target: Fuc(a1-2)Gal(b1-3)GalNAc
Procedure, shortened: as §1

[1] = biological target: Fuc(a1-2)Gal(b1-3)GalNAc(a1-3)[Fuc(a1-2)]Gal(b1-4)Glc
Procedure, shortened: as §1

[2] = biological target: Fuc(a1-2)Gal(b1-3)GalNAc(a1-3)[Fuc(a1-2)]Gal(b1-4)GlcNAc
Procedure, shortened: as §1

[3] = biological target: Fuc(a1-2)Gal(b1-3)GalNAc(b1-3)Gal
Procedure, shortened: as §1

[4] = biological target: Fuc(a1-2)Gal(b1-3)GalNAc(b1-3)Gal(a1-4)Gal(b1-4)Glc
Procedure, shortened: as §1

[5] = biological target: Fuc(a1-2)Gal(b1-3)GalNAc(b1-4)[Neu5Ac(a2-3)]Gal(b1-4)Glc
Procedure, shortened: as §1

Fuc(a1-2)Gal(b1-3)GlcNAc = biological target: Fuc(a1-2)Gal(b1-3)GlcNAc
Procedure, shortened: as §1

[6] = biological target: Fuc(a1-2)Gal(b1-3)GlcNAc(b1-2)Man(a1-3)[Fuc(a1-2)Gal(b1-3)GlcNAc(b1-2)Man(a1-6)]Man(b1-4)GlcNAc(b1-4)GlcNAc
Procedure, shortened: as §1

[7] = biological target: Fuc(a1-2)Gal(b1-3)GlcNAc(b1-3)Gal(b1-4)Glc
Procedure, shortened: as §1

[8] = biological target: Fuc(a1-2)Gal(b1-3)GlcNAc(b1-3)[Fuc(a1-3)[Gal(b1-4)]GlcNAc(b1-6)]Gal(b1-4)Glc
Procedure, shortened: as §1

[9] = biological target: Fuc(a1-2)Gal(b1-3)[Fuc(a1-4)]GlcNAc
Procedure, shortened: as §1

[10] = biological target: Fuc(a1-2)Gal(b1-3)[Fuc(a1-4)]GlcNAc(b1-2)Man(a1-3)[Fuc(a1-2)Gal(b1-3)[Fuc(a1-4)]GlcNAc(b1-2)Man(a1-6)]Man(b1-4)GlcNAc(b1-4)GlcNAc
Procedure, shortened: as §1

[11] = biological target: Fuc(a1-2)Gal(b1-3)[Fuc(a1-4)]GlcNAc(b1-3)[Fuc(a1-3)[Gal(b1-4)]GlcNAc(b1-6)]Gal(b1-4)Glc
Procedure, shortened: as §1

[12] = biological target: Fuc(a1-2)Gal(b1-3)[Fuc(a1-4)]GlcNAc(b1-3)[Gal(b1-4)GlcNAc(b1-6)]Gal(b1-4)Glc
Procedure, shortened: as §1

Fuc(a1-2)Gal(b1-4)Glc = biological target: Fuc(a1-2)Gal(b1-4)Glc
Procedure, shortened: as §1

Fuc(a1-2)Gal(b1-4)Glc6S = biological target: Fuc(a1-2)Gal(b1-4)Glc6S
Procedure, shortened: as §1

Fuc(a1-2)Gal(b1-4)GlcNAc = biological target: Fuc(a1-2)Gal(b1-4)GlcNAc
Procedure, shortened: as §1

[13] = biological target: Fuc(a1-2)Gal(b1-4)GlcNAc(b1-2)Man(a1-3)[Fuc(a1-2)Gal(b1-4)GlcNAc(b1-2)Man(a1-6)]Man(b1-4)GlcNAc(b1-4)GlcNAc
Procedure, shortened: as §1

[14] = biological target: Fuc(a1-2)Gal(b1-4)GlcNAc(b1-3)Gal(b1-4)GlcNAc
Procedure, shortened: as §1

[15] = biological target: Fuc(a1-2)Gal(b1-4)GlcNAc(b1-3)Gal(b1-4)GlcNAc(b1-3)Gal(b1-4)GlcNAc
Procedure, shortened: as §1

[16] = biological target: Fuc(a1-2)Gal(b1-4)GlcNAc(b1-3)GalNAc
Procedure, shortened: as §1

[17] = biological target: Fuc(a1-2)Gal(b1-4)GlcNAc6S
Procedure, shortened: as §1

[18] = biological target: Fuc(a1-2)Gal(b1-4)[Fuc(a1-3)]GlcNAc
Procedure, shortened: as §1

[19] = biological target: Fuc(a1-2)Gal(b1-4)[Fuc(a1-3)]GlcNAc(b1-2)Man(a1-3)[Fuc(a1-2)Gal(b1-4)[Fuc(a1-3)]GlcNAc(b1-2)Man(a1-6)]Man(b1-4)GlcNAc(b1-4)GlcNAc
Procedure, shortened: as §1

[20] = biological target: Fuc(a1-2)Gal(b1-4)[Fuc(a1-3)]GlcNAc(b1-3)Gal(b1-4)[Fuc(a1-3)]GlcNAc
Procedure, shortened: as §1

[21] = biological target: Fuc(a1-2)Gal(b1-4)[Fuc(a1-3)]GlcNAc(b1-3)Gal(b1-4)[Fuc(a1-3)]GlcNAc(b1-3)Gal(b1-4)[Fuc(a1-3)]GlcNAc
Procedure, shortened: as §1

Fuc(a1-2)Gal6S(b1-4)Glc = biological target: Fuc(a1-2)Gal6S(b1-4)Glc
Procedure, shortened: as §1

[22] = biological target: Fuc(a1-2)Gal6S(b1-4)Glc6S
Procedure, shortened: as §1

[23] = biological target: Fuc(a1-2)Gal6S(b1-4)GlcNAc
Procedure, shortened: as §1

B1: LERP (Drosophila melanogaster), B7Z0Q8 (protein)
chain: MRCSLQKDCAAPTQENFRQMRFPIVISLLLLLFCSGESVAADAANQLKFSTTECKLKEPIYGSTFDFSGLHSDLAHVVKSMNIGGDQFEFNICGNLSRTCNGESNVAACLKRQGKEYILGRQHELFYNNGNMFLKYKSGAKCDNGTADKPNYQLHVMFSCDYTLDAQPMHVTPYANEVCSFYISYRTPLACLSIPEGLQSNSCRVGDTKSNGTFDLMPLSDSNYHTSNRQGAFFVINVCKPVLYGENSMCPAGSSVCLFDSKATNPKERFINFGNVQTHPVVEKGQLLLRHESPTPCAKNSSANYTSVIYFSCDKFIRNAHPEFAGLGADSCTYQFNFATPLACNDLKPCTAFTSTNELLDLSSLSSKPARTLLKDGKNYTIAVCAHAGAPCQENGGACYEQNSTTISLGNSNSQLRFNQTGSLYLLYEDGAECSTATGMRRWSTKIEFVCANNATKDNGASTAGGSDSLKIIEDSNCQLLIQYQTPLACREPIRCKATTYVDHTNDGLGSSGDELIDLTPLISATDNYEARVELPASMEHLVPKTTKFFLNVCRPLVPKYQLGCAGGSAACMAKVTAAGAPEEERSMGFPLVSLTQRNRTFAELAYLKGDPCPTDNTSELSTHILFNCNMRAGRGQPVLRSVEDCAYRFEWETNVFCPPHECTFSADTCDLVHDELGRRFNFKSAPFTKDGKIEIDYNATKMSVNICGAHRKAMTDYSQALVNIFFTHESPNCGREGTMNVQIRLICSDQTESSSTISSDQQCNLLYVQRTPSICEFLSLGATQQNFESNGSTSSSTSSSSTSTTTSTTTQASPAGKPTKAATSTTTTTVGPDPAATPIGPTASVGTILGAILSVTFCVTCLGLLAFSPARRQRIRRLFRRSNSAVRYSRVQSNEEANLLLEPNGEFTESDDDMLL
B1 was tested, and the “glycan array binding signal (z-score)” value (Fuc(a1-2)Gal) was 0.631, the “glycan array binding signal (z-score)” value (Fuc(a1-2)Gal(b1-3)GalNAc) was 0.166 and the “glycan array binding signal (z-score)” value [1] was -0.866. The “glycan array binding signal (z-score)” value [2] was 0.063, the “glycan array binding signal (z-score)” value [3] was 2.1 and the “glycan array binding signal (z-score)” value [4] was -0.188. The “glycan array binding signal (z-score)” value [5] was -0.469, the “glycan array binding signal (z-score)” value (Fuc(a1-2)Gal(b1-3)GlcNAc) was -0.642 and the “glycan array binding signal (z-score)” value [6] was 0.555. For the same binder, the “glycan array binding signal (z-score)” value [7] was -0.631, the “glycan array binding signal (z-score)” value [8] was -0.935 and the “glycan array binding signal (z-score)” value [9] was 0.026. The “glycan array binding signal (z-score)” value [10] was -1.26, the “glycan array binding signal (z-score)” value [11] was 0.297 and the “glycan array binding signal (z-score)” value [12] was -0.354. The “glycan array binding signal (z-score)” value (Fuc(a1-2)Gal(b1-4)Glc) was -1.18, the “glycan array binding signal (z-score)” value (Fuc(a1-2)Gal(b1-4)Glc6S) was 0.589 and the “glycan array binding signal (z-score)” value (Fuc(a1-2)Gal(b1-4)GlcNAc) was -0.13. For the same binder, the “glycan array binding signal (z-score)” value [13] was -0.442, the “glycan array binding signal (z-score)” value [14] was 0.534 and the “glycan array binding signal (z-score)” value [15] was 1.83. For the same binder, the “glycan array binding signal (z-score)” value [16] was 2.32, the “glycan array binding signal (z-score)” value [17] was -1.14 and the “glycan array binding signal (z-score)” value [18] was -0.058. The “glycan array binding signal (z-score)” value [19] was -1.22, the “glycan array binding signal (z-score)” value [20] was 0.045 and the “glycan array binding signal (z-score)” value [21] was -0.388. For the same binder, the “glycan array binding signal (z-score)” value (Fuc(a1-2)Gal6S(b1-4)Glc) was 1.55, the “glycan array binding signal (z-score)” value [22] was -1.07 and the “glycan array binding signal (z-score)” value [23] was -0.168.
